# Source: PubChem BioAssay (EPA / NIEHS)
# Chains of the proteins cited; added tags and fusions are not shown. Lines headed by an entry give the natural chain unless they say otherwise; changes in a name come on top.
# UniProt P04150: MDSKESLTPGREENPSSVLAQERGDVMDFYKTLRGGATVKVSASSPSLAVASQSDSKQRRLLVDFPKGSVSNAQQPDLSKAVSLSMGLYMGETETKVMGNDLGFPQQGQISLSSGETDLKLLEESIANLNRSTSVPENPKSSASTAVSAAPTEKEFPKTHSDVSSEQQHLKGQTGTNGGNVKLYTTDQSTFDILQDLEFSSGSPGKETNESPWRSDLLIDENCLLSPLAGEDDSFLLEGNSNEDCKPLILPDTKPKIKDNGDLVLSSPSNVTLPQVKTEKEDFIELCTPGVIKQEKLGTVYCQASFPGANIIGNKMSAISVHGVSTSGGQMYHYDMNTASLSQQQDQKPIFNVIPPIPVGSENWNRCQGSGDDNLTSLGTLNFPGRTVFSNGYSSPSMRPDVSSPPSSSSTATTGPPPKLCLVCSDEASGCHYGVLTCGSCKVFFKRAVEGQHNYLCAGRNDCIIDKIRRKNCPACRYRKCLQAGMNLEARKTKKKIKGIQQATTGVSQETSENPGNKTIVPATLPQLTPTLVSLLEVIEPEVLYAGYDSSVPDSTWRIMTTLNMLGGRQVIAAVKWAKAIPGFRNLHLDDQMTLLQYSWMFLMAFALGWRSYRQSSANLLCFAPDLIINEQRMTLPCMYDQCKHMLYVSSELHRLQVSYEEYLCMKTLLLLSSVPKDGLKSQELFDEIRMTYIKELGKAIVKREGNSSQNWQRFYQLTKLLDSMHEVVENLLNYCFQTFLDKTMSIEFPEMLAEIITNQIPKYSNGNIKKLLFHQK
# UniProt O75469: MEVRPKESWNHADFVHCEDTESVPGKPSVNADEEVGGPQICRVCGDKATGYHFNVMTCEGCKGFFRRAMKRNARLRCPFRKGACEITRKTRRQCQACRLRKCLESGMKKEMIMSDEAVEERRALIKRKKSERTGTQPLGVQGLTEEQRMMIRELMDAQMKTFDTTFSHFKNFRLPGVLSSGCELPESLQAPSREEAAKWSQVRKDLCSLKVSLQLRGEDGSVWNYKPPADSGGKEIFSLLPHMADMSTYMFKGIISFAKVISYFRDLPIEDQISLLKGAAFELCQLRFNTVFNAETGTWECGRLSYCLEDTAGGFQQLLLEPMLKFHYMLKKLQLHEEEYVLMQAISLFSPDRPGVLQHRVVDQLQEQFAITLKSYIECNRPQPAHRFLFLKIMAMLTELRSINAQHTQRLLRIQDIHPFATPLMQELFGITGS
# UniProt P11473: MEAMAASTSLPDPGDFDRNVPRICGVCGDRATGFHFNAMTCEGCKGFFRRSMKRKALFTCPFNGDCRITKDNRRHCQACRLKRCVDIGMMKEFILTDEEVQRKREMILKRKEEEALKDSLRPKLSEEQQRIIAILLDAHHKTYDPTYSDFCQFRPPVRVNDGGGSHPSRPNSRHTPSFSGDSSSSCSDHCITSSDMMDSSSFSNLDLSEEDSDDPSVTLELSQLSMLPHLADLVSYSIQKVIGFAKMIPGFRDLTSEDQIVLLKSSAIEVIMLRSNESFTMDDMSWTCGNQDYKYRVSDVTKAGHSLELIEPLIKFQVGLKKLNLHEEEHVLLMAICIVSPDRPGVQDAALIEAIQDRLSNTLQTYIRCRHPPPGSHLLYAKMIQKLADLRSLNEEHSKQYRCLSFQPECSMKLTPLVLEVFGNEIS
# UniProt P19793: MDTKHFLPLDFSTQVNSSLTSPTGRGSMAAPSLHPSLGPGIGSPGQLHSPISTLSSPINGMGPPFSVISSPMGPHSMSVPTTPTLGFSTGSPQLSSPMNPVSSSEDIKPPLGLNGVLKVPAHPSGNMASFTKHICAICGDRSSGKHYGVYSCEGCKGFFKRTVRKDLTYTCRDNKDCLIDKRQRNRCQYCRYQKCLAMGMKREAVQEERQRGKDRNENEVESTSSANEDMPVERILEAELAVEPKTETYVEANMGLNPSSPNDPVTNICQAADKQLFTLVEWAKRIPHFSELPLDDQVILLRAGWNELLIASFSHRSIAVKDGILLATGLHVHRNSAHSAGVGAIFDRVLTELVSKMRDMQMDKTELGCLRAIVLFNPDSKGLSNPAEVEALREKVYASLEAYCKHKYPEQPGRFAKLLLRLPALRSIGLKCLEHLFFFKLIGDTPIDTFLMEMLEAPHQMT
# UniProt Q03181: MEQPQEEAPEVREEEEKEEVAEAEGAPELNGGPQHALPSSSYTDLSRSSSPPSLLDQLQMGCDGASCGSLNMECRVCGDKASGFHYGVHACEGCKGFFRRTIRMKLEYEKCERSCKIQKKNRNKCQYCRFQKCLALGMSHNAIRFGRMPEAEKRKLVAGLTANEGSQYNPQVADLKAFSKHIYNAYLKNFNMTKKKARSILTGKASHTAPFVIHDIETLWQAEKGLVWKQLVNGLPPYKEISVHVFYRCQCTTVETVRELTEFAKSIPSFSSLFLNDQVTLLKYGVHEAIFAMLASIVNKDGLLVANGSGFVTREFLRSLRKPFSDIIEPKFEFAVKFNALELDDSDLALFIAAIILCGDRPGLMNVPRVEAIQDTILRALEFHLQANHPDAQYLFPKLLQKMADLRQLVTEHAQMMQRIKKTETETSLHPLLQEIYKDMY
# UniProt P37231: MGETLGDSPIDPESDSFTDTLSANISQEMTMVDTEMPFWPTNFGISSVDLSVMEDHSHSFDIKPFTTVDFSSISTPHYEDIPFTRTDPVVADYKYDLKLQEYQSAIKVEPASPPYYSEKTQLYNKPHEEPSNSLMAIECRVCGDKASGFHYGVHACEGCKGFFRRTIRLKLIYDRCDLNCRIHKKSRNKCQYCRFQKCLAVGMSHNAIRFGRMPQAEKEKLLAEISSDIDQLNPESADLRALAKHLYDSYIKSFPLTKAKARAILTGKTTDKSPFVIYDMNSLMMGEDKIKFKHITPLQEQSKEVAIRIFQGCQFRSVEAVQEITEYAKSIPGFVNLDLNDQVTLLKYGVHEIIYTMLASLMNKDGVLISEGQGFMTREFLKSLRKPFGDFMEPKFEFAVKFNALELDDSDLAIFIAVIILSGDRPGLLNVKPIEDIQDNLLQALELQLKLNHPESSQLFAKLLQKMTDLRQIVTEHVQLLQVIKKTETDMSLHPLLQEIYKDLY
# UniProt P04637, whole entry, looked up: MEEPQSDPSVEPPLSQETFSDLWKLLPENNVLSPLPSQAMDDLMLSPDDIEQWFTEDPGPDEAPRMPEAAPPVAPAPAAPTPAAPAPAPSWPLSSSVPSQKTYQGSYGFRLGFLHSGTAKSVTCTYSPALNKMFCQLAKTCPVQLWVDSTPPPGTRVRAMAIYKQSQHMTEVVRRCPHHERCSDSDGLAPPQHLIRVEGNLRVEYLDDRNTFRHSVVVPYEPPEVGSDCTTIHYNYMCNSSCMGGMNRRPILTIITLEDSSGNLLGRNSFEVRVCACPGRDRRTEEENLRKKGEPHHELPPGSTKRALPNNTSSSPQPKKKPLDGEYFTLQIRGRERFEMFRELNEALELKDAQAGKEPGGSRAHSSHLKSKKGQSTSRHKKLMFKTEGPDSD
# UniProt Q96RI1: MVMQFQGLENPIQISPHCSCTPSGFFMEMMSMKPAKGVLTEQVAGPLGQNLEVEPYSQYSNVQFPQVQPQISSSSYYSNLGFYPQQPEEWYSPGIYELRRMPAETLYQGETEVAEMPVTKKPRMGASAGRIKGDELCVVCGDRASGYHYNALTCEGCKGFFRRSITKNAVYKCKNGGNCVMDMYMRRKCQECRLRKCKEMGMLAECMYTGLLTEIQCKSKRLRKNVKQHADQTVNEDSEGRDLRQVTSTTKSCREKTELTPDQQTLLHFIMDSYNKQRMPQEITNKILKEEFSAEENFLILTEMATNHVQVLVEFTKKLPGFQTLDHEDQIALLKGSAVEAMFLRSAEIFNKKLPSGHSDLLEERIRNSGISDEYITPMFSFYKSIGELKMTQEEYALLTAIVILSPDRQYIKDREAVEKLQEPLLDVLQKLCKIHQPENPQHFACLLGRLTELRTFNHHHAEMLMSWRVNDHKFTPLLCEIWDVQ
# “And” between values parts separate entries of the source, which are not always exact repeats. Identical values can stand only once. Inconclusive results, whose numbers are uncertain, are shown with a selection of clear calls. For some of these results: Potencies of inconclusive entries are doubtful fits and often do not repeat. The source made the active and inactive calls. Rule for the calls: active = hit-call score of the fitted dose curve at least 0.9, where 1 is the maximum; inconclusive = response in the unintended direction; inactive = score below 0.9.
# What was measured:
# [1] = target: Glucocorticoid receptor (Homo sapiens) (UniProt P04150); test: ATG_GR_TRANS: Attagene TRANS-FACTORIAL HepG2 Assay for human Glucocorticoid Receptor (GR) (AID 2282978); settings: HepG2 Attagene TRANS GR reporter, mRNA transcription;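 note: activators score as hits since higher reporter transcript over DMSO is fitted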
# Summary of the method: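 After 24 h incubation with test chemical, transfected HepG2 cells were lysed for RNA; reporter cDNA was amplified, FAM-labelled, HpaI-digested and sized on a capillary analyser. Signal gain relative to DMSO was scored.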
# [2] = target: Nuclear receptor subfamily 1 group I member 2 (Homo sapiens) (UniProt O75469); test: ATG_PXR_TRANS: Attagene TRANS-FACTORIAL HepG2 Assay for human Pregnane X Receptor (PXR) (AID 2283008)
# Summary of the method: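 Fluorescence intensity of FAM-labelled, HpaI-digested reporter amplicons, separated by capillary electrophoresis, quantifies induction. HepG2 cells with PXR-Gal4 trans-reporter system were exposed 24 h; DMSO defines baseline.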
# [3] = target: human Vitamin D Receptor (VDR), VDR (gene 7421) (UniProt P11473); test: ATG_VDR_TRANS: Attagene TRANS-FACTORIAL HepG2 Assay for human Vitamin D Receptor (VDR) (AID 2283022)
# Summary of the method: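 Fluorescence of labelled reporter cDNA fragments, resolved by capillary electrophoresis, gives mRNA induction after 24 h treatment of HepG2 cells carrying transfected Gal4-fusion reporter units. Activity is fitted in the positive direction with DMSO as baseline.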
# [4] = target: Retinoic acid receptor RXR-alpha (Homo sapiens) (UniProt P19793); test: OT_NURR1_NURR1RXRa_1440: Odyssey Thera (OT) 24-hour HEK293T Protein Complementation Assay for Nurr1/retinoid X receptor (RXR) (AID 2283386)
# Summary of the method: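 HEK293T protein-fragment complementation of Nurr1 and RXRα fused to reporter fragments; compounds 24 h. Fluorescence gain from reconstituted reporter fitted versus DMSO.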
# [5] = target: human Peroxisome Proliferator-activated Receptor delta (PPARd), PPARD (gene 5467) (UniProt Q03181); test: ATG_PPARd_TRANS: Attagene TRANS-FACTORIAL HepG2 Assay for human Peroxisome Proliferator-activated Receptor delta (PPARd) (AID 2283002)
# Summary of the method: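 Cell-based TRANS reporter: HepG2, transient MRTU transfection, 24 h exposure. Readout = reporter mRNA (RT-PCR/CE, 6-FAM). Gain-of-signal fit vs DMSO control.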
# [6] = target: Peroxisome proliferator-activated receptor gamma (Homo sapiens) (UniProt P37231); test: ATG_PPARg_TRANS: Attagene TRANS-FACTORIAL HepG2 Assay for human Peroxisome Proliferator-activated Receptor-gamma (PPARg) (AID 2283007)
# Summary of the method: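 Twenty-four hours after chemical dosing of transiently transfected HepG2 cells, isolated RNA was converted to cDNA, reporter sequences amplified and 6-FAM-labelled, then HpaI-digested and analysed by capillary electrophoresis. Signal increase against DMSO was fitted.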
# [7] = target: Retinoic acid receptor RXR-alpha (Homo sapiens) (UniProt P19793); test: OT_NURR1_NURR1RXRa_0480: Odyssey Thera (OT) 8-hour HEK293T Protein Complementation Assay for Nurr1/retinoid X receptor (RXR) (AID 2283385)
# Summary of the method: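 HEK293T cells expressing Nurr1 and RXRα fused to reporter fragments (protein-fragment complementation); fluorescence measured 8 h after dosing. Gain of signal fitted relative to DMSO.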
# [8] = ACEA_ER_AUC_viability: ACEA Biosciences xCELLigence Real-Time Cell Analysis on Estrogen Receptor Agonism for Viability (AID 2283782);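 note: continuous compound exposure with impedance area under curve over 80 h; hit means loss of impedance signal meaning reduced cell growth or viability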
# Summary of the method: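 T-47D; phenol red-free RPMI1640 + 10% CS-FBS; 8 conc., 1:4 serial, max 100 uM final, ≤0.5% DMSO; n = 2; continuous exposure; impedance monitored to 80 h post-dose; AUC vs DMSO.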
# [9] = ATG_XTT_Cytotoxicity: Cytotoxicity Assessment in the Attagene TRANS-FACTORIAL HepG2 Assay (AID 2283584);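 note: XTT signal for cell number as viability in transfected HepG2 cells; cells exposed to compound for 24 h before reading; active means loss of viability signal versus DMSO baseline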
# Summary of the method: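 Transfect HepG2 with GAL4-UAS reporter units, dose compound, incubate 24 h, then measure viable cell number by XTT. Fit concentration response against DMSO baseline.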
# [10] = target: Cellular tumor antigen p53 (Homo sapiens) (UniProt P04637); test: TOX21_p53_BLA_p3_ratio: Tox21 HCT-116 p53 Agonism Beta-lactamase Assay, Ratio, Phase 3 (AID 2283596)
# Summary of the method: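 HCT116 p53-bla cells (4000/well) given compound in DMSO (217-fold dilution) after 5 h, incubated 16 h at 37C. CCF4-AM substrate 2 h at room temperature; 460/530 nm emission ratio, gain fitted against DMSO.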
# [11] = TOX21_p53_BLA_p4_viability: Viability Assessment in the Tox21 HCT-116 p53 Agonism Beta-lactamase Assay, Phase 4 (AID 2283597);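 note: hits lower the luminescence signal meaning cytotoxicity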
# Summary of the method: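 Compound exposure of HCT116 cells lasts 16 h at 37C, 5% CO2, with DMSO stocks diluted 217-fold. Cellular ATP is then quantified by CellTiter-Glo luminescence after 30 min at room temperature.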
# [12] = target: Cellular tumor antigen p53 (Homo sapiens) (UniProt P04637); test: TOX21_p53_BLA_p5_ratio: Tox21 HCT-116 p53 Agonism Beta-lactamase Assay, Ratio, Phase 5 (AID 2283599)
# Summary of the method: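 Beta-lactamase reporter ratio (blue 460 nm over green 530 nm, 405 nm excitation) after 2 h CCF4-AM loading, in HCT-116 cells exposed 16 h at 37 C to compounds pinned at 217-fold dilution. Increases relative to DMSO baseline scored.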
# [13] = TOX21_p53_BLA_p5_viability: Viability Assessment in the Tox21 HCT-116 p53 Agonism Beta-lactamase Assay, Phase 5 (AID 2283600)
# Summary of the method: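 Counter-readout for cytotoxicity: ATP-dependent luminescence from CellTiter-Glo, read in the beta-lactamase wells after 30 min at RT, following a 16 h compound exposure at 37C.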
# [14] = target: Cellular tumor antigen p53 (Homo sapiens) (UniProt P04637); test: TOX21_p53_BLA_p4_ratio: Tox21 HCT-116 p53 Agonism Beta-lactamase Assay, Ratio, Phase 4 (AID 2283601)
# Summary of the method: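 Signal is the blue/green (460nm/530nm) ratio of cleaved versus uncleaved CCF4-AM substrate, read after 2 h substrate loading. Cells were HCT116 carrying the p53-responsive beta-lactamase reporter, dosed 16 h at 37C, 5% CO2; CellTiter-Glo measured in parallel.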
# [15] = ACEA_AR_agonist_AUC_viability: ACEA Biosciences xCELLigence Real-Time Cell Analysis on Androgen Receptor Agonism for Viability (AID 2283775);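 note: viability read 80 hours after compound addition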
# Summary of the method: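 Real-time impedance tracking of 22Rv1 growth, readings every 5 min for 5 h then hourly; area-under-curve viability endpoint at 80 hours, relative to DMSO. Compounds at eight concentrations, 1:4 steps, top 100 uM, n = 2.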
# [16] = ATG_M_06_TRANS: Attagene TRANS-FACTORIAL HepG2 Assay for M06 Transcription Factor (Internal Marker) (AID 2282983); settings: HepG2 Attagene TRANS M06 internal marker reporter;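 for AC50: potency for rise in reporter mRNA above DMSO baseline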;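 for outcome: reporter transcript level by RT-PCR then capillary electrophoresis fluorescence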
# Summary of the method: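 Measured by capillary electrophoresis of fluorescently labelled RT-PCR products, this endpoint reflects reporter mRNA in HepG2 cells harbouring exogenous NR-GAL4 reporter constructs after 24 h exposure, with DMSO as baseline.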
# [17] = target: Cellular tumor antigen p53 (Homo sapiens) (UniProt P04637); test: TOX21_p53_BLA_p2_ratio: Tox21 HCT-116 p53 Agonism Beta-lactamase Assay, Ratio, Phase 2 (AID 2283592)
# Summary of the method: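 An inducible beta-lactamase reporter in HCT116 cells signals p53 pathway activation. After 16 h chemical exposure at 37C, cells load CCF4-AM substrate for 2 h at room temperature; activity is the cleaved/uncleaved emission ratio relative to DMSO.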
# [18] = target: Bile acid receptor (Homo sapiens) (UniProt Q96RI1); test: ATG_FXR_TRANS: Attagene TRANS-FACTORIAL HepG2 Assay for Farnesoid X Receptor (FXR) (AID 2282979); settings: HepG2 Attagene TRANS FXR-GAL4 reporter transcription;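 note: hits raise reporter mRNA above DMSO so AC50 marks FXR activation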
# Summary of the method: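 Chimeric FXR-GAL4 activity in transiently transfected human HepG2 liver cells is scored as induction of reporter mRNA after 24 h of dosing. Detection uses RT-PCR with fluorescent labelling and capillary electrophoresis, with DMSO serving as baseline.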
compound,measurement,setting,value
O=C(CC(=O)c1ccccc1)c1ccccc1,outcome,[5],inactive
same,AC50,[2],active: 28.2 µM
same,AC50,[4],active: 81.5 µM
same,AC50,[9],inconclusive: 100 µM
same,outcome,[10],inactive
same,outcome,[11],inactive
same,outcome,[12],inactive
same,outcome,[13],inactive
same,outcome,[14],inactive
same,AC50,[15],inconclusive: 0.0809 µM
same,AC50,[8],inconclusive: 50 µM
CC(C)c1ccc2c(c1)CC[C@H]1[C@](C)(CN)CCC[C@]21C,AC50,[16],active: 5.45 µM
same,AC50,[6],active: 6.02 µM
same,AC50,[9],active: 9.98 µM
same,AC50,[17],active: 47.1 µM
same,AC50,[10],active: 72.5 µM
same,AC50,[11],active: 49.6 µM
same,AC50,[12],active: 78.5 µM
same,AC50,[13],active: 63.5 µM
same,AC50,[14],active: 85.8 µM
CCCCCCCCCCCCN(CCCCCCCCCCCC)CCCCCCCCCCCC,AC50,[3],inconclusive: 22.5 µM
same,AC50,[12],inconclusive: 72.8 µM
same,AC50,[13],inconclusive: 42.5 µM
same,AC50,[14],inconclusive: 42.5 µM
CCc1cc(SCc2sc(-c3ccc(C(F)(F)F)cc3)nc2CN2CCN(c3ccc(OC)cc3)CC2)ccc1OCC(=O)O,AC50,[1],inconclusive: 0.111 µM
same,outcome,[18],inactive
same,outcome,[16],inactive
same,AC50,[5],active: 0.00449 µM
same,AC50,[6],active: 0.0352 µM
same,AC50,[3],inconclusive: 11 µM
same,AC50,[7],inconclusive: 89.9 µM and inconclusive: 88.1 µM
same,AC50,[4],inconclusive: 87.4 µM and inconclusive: 93.9 µM
same,AC50,[17],active: 46.1 µM
same,AC50,[10],active: 59.9 µM
same,AC50,[11],active: 4.42 µM
same,AC50,[13],active: 9.98 µM
same,AC50,[14],active: 9.5 µM
